Results from US20190256582A1.
No constants are given. Whether binding was seen depends on the method and setting. For some assays here: Binding can be weak; no strength is given.

Legend:
[1] = target: ZIKV NS1 protein (Zika virus (ZIKV)); assay: BLI (Octet), ZIKV NS1 immobilised on APS sensor
[2] = target: DENV2 NS1 protein (dengue virus serotype 2 (DENV2)); assay: ELISA
[3] = target: DENV3 NS1 protein (dengue virus serotype 3 (DENV3)); assay: ELISA
[4] = target: DENV1 NS1 protein (dengue virus serotype 1 (DENV1)); assay: ELISA
[5] = target: DENV4 NS1 protein (dengue virus serotype 4 (DENV4)); assay: ELISA
[6] = target: ZIKV NS1 protein (Zika virus (ZIKV)); assay: ELISA
[7] = target: DENV4 E protein (dengue virus serotype 4 (DENV4)); assay: ELISA
[8] = target: DENV2 E protein (dengue virus serotype 2 (DENV2)); assay: ELISA
[9] = target: DENV1 E protein (dengue virus serotype 1 (DENV1)); assay: ELISA
[10] = target: DENV3 E protein (dengue virus serotype 3 (DENV3)); assay: ELISA

Measured: binding

B1: ZKA35 (antibody, V domains shown)
VH: QVQLQESGPGLVKPSQTLSLTCTVSGGSISTGGYYWSWIRQHPGKGLEWIGYIYYSGNTYYNPSLKSRVTISVDTSKKQFSLKLSSVTAADTAVYYCAKGGGRERPFDYWGQGTLVTVSS
VL: QSVLTQPPSASGTPGQRVTISCSGSSSNIGRNYVDWYQQLPGTAPKLLIYRNNQRPSGVPERFSGSKSGTSASLAISGLRSEDEADYYCVAWDDSRSGFVVFGGGTKVTVL
no binding: [2] | [3] | [4] | [5]
binds: [1] | [6]

B2: ZKA185 (antibody, V domains shown)
VH: EVQLVQSGAEVKKPGESLRISCKGSGYSFTSYWITWVRQMPGKGLEWMAKFDPSDSQTNYSPSFQGHVTISVDKSISTAYLQWSSLKASDTAMYYCARRYCSSSSCYVDNWGQGTLVTIFS
VL: SYELTQPPSVSVSPGQTARITCSGDALPNKFAYWYRQKSGQAPVLVIYEDNKRPSGIPERFSGSSSGTMATLTISGAQVEDEADYHCYSTDSSSNPLGVFGGGTKLTVL
no binding: [7] | [8] | [9] | [10]

B3: ZKA230 (antibody, V domains shown)
VH: QVQLQESGPGLVKPSETLSLTCAVSGGSISSDYWSWIRQPPGKGLEWIGYIYYSGSTNYNPSLKSRVTISVDTSKNHFSLKLNSVTAADTAVYYCARRRKYDSLWGSFAFDIWGQGTMVTVSS
VL: QSVLTQPPSASGTPGQRVTISCSGSSSNIGGNYVYWYQQLPGTAPKLLICINDHRPSGVPDRFSGSKSGTSASLAISGLQSEDEADYYCATWDDSLGGLVFGGGTKLTVL
no binding: [7] | [8] | [9] | [10]
